Data taken from the supplement of paper PMC10849652.
The list shows a part of the results.

Amino acid sequences for entries named in this document (tags omitted). A change or cut given only in a name is not applied to a line headed by its entry.
UniProt O43516: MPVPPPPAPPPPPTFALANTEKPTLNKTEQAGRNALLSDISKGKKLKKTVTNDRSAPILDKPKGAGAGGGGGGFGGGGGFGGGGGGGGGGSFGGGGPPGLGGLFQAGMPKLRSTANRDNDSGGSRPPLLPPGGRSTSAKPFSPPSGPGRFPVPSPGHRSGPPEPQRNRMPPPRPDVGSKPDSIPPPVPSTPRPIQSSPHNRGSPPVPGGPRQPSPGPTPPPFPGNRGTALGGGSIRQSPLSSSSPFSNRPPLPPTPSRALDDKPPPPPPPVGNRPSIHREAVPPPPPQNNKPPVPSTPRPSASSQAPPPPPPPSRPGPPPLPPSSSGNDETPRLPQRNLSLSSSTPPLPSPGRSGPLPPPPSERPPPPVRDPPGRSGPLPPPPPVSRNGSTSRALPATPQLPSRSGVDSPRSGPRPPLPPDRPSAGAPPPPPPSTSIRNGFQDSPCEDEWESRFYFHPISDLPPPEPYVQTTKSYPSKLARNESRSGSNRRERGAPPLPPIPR
UniProt P40337, whole entry, looked up: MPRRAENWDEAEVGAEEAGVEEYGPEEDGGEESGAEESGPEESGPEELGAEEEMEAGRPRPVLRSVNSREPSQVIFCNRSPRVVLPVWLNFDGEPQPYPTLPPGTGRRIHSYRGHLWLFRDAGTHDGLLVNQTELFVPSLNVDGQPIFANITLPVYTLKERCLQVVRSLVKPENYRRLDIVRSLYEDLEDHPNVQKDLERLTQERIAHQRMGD
UniProt Q6VEQ5: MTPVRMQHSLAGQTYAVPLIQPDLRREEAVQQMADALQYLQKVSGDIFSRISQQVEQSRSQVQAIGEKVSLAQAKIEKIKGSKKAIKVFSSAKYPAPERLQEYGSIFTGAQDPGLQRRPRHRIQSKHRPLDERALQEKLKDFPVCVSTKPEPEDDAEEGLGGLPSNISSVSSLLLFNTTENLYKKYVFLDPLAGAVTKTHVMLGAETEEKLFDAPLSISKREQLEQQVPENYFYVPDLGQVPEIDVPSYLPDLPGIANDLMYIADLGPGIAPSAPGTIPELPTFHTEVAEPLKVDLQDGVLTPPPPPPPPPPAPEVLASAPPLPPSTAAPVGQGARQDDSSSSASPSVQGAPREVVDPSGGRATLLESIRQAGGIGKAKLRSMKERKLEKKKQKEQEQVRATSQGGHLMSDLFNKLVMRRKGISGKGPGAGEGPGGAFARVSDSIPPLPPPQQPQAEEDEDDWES
UniProt O00258: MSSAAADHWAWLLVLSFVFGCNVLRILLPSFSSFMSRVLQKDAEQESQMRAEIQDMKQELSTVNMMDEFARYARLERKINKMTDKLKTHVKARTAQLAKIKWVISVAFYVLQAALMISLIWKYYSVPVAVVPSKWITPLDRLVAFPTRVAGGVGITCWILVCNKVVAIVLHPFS
UniProt Q7Z7G8: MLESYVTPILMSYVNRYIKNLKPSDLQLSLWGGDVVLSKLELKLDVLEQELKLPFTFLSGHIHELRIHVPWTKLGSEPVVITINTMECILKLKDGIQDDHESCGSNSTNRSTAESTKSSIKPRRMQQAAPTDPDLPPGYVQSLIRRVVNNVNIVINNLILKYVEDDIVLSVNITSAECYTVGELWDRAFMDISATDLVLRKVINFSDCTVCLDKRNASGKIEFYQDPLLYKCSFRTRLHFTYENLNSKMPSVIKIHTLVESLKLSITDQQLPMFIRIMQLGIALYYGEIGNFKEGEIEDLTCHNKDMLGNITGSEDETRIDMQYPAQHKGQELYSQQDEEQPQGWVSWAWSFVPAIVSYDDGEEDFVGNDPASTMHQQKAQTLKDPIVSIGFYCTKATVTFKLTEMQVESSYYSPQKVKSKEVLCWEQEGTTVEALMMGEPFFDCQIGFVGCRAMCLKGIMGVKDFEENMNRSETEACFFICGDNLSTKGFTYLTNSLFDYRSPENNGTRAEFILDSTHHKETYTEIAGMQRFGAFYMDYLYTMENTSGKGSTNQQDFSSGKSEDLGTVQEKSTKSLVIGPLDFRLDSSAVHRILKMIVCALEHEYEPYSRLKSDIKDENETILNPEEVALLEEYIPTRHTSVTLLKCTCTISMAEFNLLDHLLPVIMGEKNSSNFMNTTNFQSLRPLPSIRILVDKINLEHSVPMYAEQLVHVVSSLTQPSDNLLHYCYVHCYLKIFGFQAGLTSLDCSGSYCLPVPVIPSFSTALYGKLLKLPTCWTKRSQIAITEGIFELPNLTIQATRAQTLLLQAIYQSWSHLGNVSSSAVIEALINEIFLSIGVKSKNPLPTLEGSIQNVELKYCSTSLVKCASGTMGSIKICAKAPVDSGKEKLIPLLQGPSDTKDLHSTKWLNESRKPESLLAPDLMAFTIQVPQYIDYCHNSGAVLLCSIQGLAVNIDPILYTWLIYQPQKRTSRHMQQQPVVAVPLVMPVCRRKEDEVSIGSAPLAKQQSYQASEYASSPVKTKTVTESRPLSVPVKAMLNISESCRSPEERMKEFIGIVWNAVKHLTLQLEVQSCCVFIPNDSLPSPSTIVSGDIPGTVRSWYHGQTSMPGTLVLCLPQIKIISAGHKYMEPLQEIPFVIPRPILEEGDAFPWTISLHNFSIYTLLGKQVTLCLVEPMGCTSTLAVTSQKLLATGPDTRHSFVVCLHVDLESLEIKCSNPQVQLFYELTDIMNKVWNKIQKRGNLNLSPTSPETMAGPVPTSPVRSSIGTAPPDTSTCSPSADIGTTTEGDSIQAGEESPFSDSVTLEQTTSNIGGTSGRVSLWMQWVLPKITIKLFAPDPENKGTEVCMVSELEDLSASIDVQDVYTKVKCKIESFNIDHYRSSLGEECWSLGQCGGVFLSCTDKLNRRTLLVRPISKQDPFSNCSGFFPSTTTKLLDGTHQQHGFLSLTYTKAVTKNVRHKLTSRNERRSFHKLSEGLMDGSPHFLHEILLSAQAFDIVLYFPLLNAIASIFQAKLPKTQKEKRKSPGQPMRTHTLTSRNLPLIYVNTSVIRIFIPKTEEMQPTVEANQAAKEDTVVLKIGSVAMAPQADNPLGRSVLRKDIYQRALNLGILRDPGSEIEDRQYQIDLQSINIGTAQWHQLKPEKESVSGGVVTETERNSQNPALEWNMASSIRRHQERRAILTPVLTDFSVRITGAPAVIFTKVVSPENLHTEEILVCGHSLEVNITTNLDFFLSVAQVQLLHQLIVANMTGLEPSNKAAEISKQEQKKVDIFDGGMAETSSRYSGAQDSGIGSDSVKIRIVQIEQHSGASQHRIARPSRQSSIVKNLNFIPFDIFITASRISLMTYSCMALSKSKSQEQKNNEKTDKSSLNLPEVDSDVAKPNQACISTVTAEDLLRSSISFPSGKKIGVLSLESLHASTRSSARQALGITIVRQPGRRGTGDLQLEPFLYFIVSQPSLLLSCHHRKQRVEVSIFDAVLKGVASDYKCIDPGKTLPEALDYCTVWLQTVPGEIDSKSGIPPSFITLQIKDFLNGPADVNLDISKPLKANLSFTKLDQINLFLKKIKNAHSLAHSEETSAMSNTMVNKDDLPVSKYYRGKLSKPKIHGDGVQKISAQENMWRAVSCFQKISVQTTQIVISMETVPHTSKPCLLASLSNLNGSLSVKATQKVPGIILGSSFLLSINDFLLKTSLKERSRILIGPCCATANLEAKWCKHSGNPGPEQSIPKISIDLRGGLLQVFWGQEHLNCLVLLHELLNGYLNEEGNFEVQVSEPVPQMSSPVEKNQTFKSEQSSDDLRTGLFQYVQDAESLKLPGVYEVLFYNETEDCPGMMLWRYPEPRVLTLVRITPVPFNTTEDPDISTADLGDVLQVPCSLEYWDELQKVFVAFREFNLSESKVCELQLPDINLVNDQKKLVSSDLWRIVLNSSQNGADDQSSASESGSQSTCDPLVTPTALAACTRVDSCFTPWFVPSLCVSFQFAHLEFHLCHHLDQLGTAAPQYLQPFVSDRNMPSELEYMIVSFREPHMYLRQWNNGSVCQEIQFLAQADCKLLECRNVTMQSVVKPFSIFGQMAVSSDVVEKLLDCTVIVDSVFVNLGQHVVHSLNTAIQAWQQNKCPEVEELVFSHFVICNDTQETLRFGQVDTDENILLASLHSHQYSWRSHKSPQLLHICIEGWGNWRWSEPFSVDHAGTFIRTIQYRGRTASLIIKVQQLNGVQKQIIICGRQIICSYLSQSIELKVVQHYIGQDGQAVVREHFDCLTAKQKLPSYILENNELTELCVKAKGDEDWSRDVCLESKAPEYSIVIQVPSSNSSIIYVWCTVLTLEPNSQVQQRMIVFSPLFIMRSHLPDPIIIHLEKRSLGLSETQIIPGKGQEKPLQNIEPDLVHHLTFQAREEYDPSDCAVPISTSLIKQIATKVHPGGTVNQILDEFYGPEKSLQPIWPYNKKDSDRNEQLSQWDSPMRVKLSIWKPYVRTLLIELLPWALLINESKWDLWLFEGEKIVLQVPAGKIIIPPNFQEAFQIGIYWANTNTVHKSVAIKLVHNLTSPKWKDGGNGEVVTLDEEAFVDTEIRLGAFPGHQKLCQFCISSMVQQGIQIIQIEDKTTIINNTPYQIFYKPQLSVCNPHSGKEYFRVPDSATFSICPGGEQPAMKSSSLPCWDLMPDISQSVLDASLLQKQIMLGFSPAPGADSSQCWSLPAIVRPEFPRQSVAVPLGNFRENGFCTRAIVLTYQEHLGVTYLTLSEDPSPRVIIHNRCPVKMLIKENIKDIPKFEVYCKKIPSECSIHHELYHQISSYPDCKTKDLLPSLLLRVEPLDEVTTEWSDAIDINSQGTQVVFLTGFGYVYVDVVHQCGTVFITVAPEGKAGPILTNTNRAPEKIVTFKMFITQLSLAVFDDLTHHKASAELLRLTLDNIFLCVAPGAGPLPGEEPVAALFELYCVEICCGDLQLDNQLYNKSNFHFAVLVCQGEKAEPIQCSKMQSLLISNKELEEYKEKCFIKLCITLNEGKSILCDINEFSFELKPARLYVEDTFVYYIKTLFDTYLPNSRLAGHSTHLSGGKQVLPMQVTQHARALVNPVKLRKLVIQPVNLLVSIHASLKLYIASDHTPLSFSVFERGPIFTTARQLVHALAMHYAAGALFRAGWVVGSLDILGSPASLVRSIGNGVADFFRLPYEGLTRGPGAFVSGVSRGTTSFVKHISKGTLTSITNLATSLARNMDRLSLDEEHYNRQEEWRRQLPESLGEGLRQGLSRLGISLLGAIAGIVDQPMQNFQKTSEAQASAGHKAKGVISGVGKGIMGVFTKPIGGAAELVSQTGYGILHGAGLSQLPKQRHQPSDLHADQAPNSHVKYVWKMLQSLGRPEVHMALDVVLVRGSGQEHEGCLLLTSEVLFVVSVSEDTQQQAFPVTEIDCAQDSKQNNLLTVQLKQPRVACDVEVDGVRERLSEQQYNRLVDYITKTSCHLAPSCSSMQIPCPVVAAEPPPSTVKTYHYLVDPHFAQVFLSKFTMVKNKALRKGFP
UniProt P21796, whole entry, looked up: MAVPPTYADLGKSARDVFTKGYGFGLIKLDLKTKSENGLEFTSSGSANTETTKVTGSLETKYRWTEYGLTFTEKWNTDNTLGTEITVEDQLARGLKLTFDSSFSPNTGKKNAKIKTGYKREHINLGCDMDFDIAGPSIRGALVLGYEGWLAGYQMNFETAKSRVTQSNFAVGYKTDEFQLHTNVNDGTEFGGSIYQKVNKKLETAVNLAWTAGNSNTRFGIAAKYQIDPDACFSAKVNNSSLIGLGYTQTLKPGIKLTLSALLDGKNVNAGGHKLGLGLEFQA
UniProt Q9Y3C0: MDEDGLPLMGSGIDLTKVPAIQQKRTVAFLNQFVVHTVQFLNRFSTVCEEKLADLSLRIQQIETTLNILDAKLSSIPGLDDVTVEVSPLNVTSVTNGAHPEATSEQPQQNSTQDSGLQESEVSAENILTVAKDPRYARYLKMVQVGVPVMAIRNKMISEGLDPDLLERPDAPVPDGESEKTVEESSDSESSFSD
UniProt Q14119: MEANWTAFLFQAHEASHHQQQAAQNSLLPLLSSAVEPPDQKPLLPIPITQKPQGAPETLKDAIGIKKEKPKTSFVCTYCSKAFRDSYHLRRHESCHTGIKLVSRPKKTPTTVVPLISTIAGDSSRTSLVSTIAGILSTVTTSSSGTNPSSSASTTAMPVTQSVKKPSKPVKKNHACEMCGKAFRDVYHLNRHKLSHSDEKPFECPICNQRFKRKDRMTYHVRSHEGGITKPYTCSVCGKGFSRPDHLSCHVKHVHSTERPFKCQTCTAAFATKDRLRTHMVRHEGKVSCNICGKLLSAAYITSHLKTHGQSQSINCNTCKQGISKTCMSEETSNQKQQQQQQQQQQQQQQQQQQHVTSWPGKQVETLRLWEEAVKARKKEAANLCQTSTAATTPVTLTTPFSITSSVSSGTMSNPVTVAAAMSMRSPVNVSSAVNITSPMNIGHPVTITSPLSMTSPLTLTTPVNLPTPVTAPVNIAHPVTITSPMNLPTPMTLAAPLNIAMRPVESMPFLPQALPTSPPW

How the values were obtained:
Assay in all cases: log2 fold change, soluble protein after heating vs DMSO (PISA); higher = thermal stabilisation; K562 cells, 10 uM, 30 min; active = over 0.2 and 3.5 SD of the protein, either way, in both replicates (recomputed)
[1] = compound: CN1CCN(CCOc2cc(OC3CCOCC3)c3c(Nc4c(Cl)ccc5c4OCO5)ncnc3c2)CC1 [saracatinib]
Method in brief: (§1)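 K562 cells at 2×10^6 cells/mL were treated for 30 min with 10 μM compound, and aliquots were heated for 3 min over 48°C-58°C before pooling. Extraction used PBS with 0.5% NP-40 at 4°C, and soluble protein was the supernatant after 21,000xg for 90 min, measured by TMTpro 16plex LC-MS/MS with channel sums equalised. Thermal stability values, relative to control samples and from duplicates, are log2 fold changes.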

[2] = compound: CN1CCN(c2nc(C3=C(c4c[nH]c5ccccc45)C(=O)NC3=O)c3ccccc3n2)CC1 [sotrastaurin]
Method in brief: as §1

[3] = compound: CN1CC[C@H](c2c(O)cc(O)c3c(=O)cc(-c4ccccc4Cl)oc23)[C@H](O)C1 [alvocidib]
Method in brief: as §1

[4] = compound: CN1CCc2c(c3ccccc3n2Cc2ccc(C(=O)NO)cc2)C1 [Tubastatin A]
Method in brief: as §1

[5] = compound: CNC(=O)C1=CC=CC=C1NC2=NC(=NC=C2Cl)NC3=C(C=C(C=C3)N4CCOCC4)OC
Method in brief: as §1

[6] = compound: CNC(=O)c1ccc(Nc2ncc(C(F)(F)F)c(NCc3nccnc3N(C)S(C)(=O)=O)n2)cc1 [defactinib]
Method in brief: as §1

[7] = compound: CNCc1ccc(-c2[nH]c3cc(F)cc4c3c2CCNC4=O)cc1 [rucaparib]
Method in brief: as §1

[8] = compound: CNc1nc(-c2ccc3c(N)n[nH]c3c2)cc(N2C[C@@H](C(=O)NC3CCCCC3)CC[C@H]2C)n1
Method in brief: as §1

[9] = compound: COC(=O)N[C@@H](C)CNc1nccc(-c2cn(C(C)C)nc2-c2cc(Cl)cc(NS(C)(=O)=O)c2F)n1 [encorafenib]
Method in brief: as §1

[10] = compound: COC(=O)[C@H](CCSC)NC(=O)C1=C(C=C(C=C1)NC[C@H](CS)N)C2=CC=CC=C2
Method in brief: as §1

[11] = compound: COC1=CC=C(C=C1)CN2C=CC3=C2C=C(C=C3)C(=O)NO
Method in brief: as §1

[12] = compound: CON(C)C(=O)N1N=C(c2cc(F)ccc2F)S[C@@]1(CCCN)c1ccccc1 [filanesib]
Method in brief: as §1

[13] = compound: CO[C@H]1C[C@@H]2CC[C@@H](C)[C@@](O)(O2)C(=O)C(=O)N2CCCC[C@H]2C(=O)O[C@H]([C@H](C)C[C@@H]2CC[C@H](n3cnnn3)[C@H](OC)C2)CC(=O)[C@H](C)/C=C(\C)[C@@H](O)[C@@H](OC)C(=O)[C@H](C)C[C@H](C)/C=C/C=C/C=C/1C [zotarolimus]
Method in brief: as §1

[14] = compound: COc1cc(C(=O)O)ccc1NC(=O)[C@@H]1N[C@@H](CC(C)(C)C)[C@](C#N)(c2ccc(Cl)cc2F)[C@H]1c1cccc(Cl)c1F [idasanutlin]
Method in brief: as §1

[15] = compound: COc1cc(Nc2ncc3c(n2)-c2ccc(Cl)cc2C(c2c(F)cccc2OC)=NC3)ccc1C(=O)O [alisertib]
Method in brief: as §1

[16] = compound: COc1cc2nc(-c3cc(F)ccc3O)nc(N[C@@H]3CNC[C@H]3C(C)(C)O)c2cc1OC
Method in brief: as §1

[17] = compound: COc1cc2ncnc(Nc3ccc(F)c(Cl)c3)c2cc1OCCCN1CCOCC1 [gefitinib]
Method in brief: as §1

[18] = compound: COc1cccc2cc(-c3nc([C@H]4CC[C@H](C(=O)O)CC4)n4ncnc(N)c34)[nH]c12
Method in brief: as §1

[19] = compound: CS(=O)(=O)CCNCc1ccc(-c2ccc3ncnc(Nc4ccc(OCc5cccc(F)c5)c(Cl)c4)c3c2)o1 [lapatinib]
Method in brief: as §1

[20] = compound: CS(=O)(=O)N1CCN(Cc2cc3nc(-c4cccc5[nH]ncc45)nc(N4CCOCC4)c3s2)CC1 [pictilisib]
Method in brief: as §1

Measured: log2 fold change

VKORC1L1, A0A3B3ISV4
inactive: [1] 0.015 | [2] 0.004 | [3] -0.037 | [4] -0.134 | [5] 0.073 | [6] 0.003 | [7] 0.016 | [8] -0.032 | [9] -0.016 | [10] 0.056 | [11] -0.163 | [12] -0.006 | [13] 0.004 | [14] 0.003 | [15] -0.03 | [16] -0.16 | [17] 0.017 | [18] 0.042 | [19] -0.037 | [20] 0.059

WIPF1 isoform 3 (UniProt O43516)
inactive: [1] 0.234 | [2] 0.206 | [3] 0.118 | [4] 0.351 | [5] -0.083 | [6] -0.033 | [7] -0.072 | [8] -0.136 | [9] -0.075 | [10] 0.141 | [11] -0.08 | [12] 0.162 | [13] -0.052 | [14] 0.024 | [15] 0.18 | [16] -0.111 | [17] -0.034 | [18] -0.055 | [19] 0.004 | [20] 0.078

WNK1 isoform 7 (UniProt Q9H4A3)
inactive: [1] 0.022 | [2] 0.003 | [4] -0.005 | [5] -0.047 | [6] 0.003 | [7] 0.013 | [8] -0.035 | [9] 0.012 | [10] 0.006 | [11] -0.034 | [12] -0.003 | [13] -0.006 | [14] -0.026 | [15] -0.026 | [16] 0.082 | [17] 0 | [18] 0.032 | [19] -0.002 | [20] 0

VRK1 (UniProt Q99986)
inactive: [1] -0.057 | [2] 0.152 | [4] 0.07 | [5] 0.05 | [6] -0.041 | [7] 0.048 | [8] 0.108 | [9] 0.043 | [10] -0.04 | [11] 0.098 | [12] -0.07 | [13] -0.123 | [14] -0.119 | [15] 0.06 | [16] 0.316 | [17] -0.018 | [18] -0.003 | [19] -0.059 | [20] 0.086

VHL (UniProt P40337)
inactive: [1] 0.043 | [2] -0.002 | [3] -0.188 | [7] 0.191 | [8] 0.048 | [9] 0.085 | [12] -0.118 | [13] -0.221 | [14] -0.034

WASH2P (UniProt Q6VEQ5)
inactive: [1] 0.009 | [2] -0.08 | [4] -0.059 | [5] 0.02 | [6] -0.004 | [7] -0.011 | [8] -0.037 | [9] 0.004 | [10] 0.007 | [11] 0.007 | [12] -0.067 | [13] -0.029 | [14] -0.055 | [15] -0.027 | [16] 0.067 | [17] 0.001 | [18] -0.036 | [19] 0.016 | [20] 0.053

WRB (UniProt O00258)
inactive: [1] -0.007 | [2] 0.075 | [4] -0.051 | [5] -0.048 | [6] 0.073 | [7] -0.003 | [8] -0.014 | [9] -0.057 | [10] 0.023 | [11] -0.036 | [12] -0.041 | [13] -0.019 | [14] -0.032 | [15] -0.031 | [16] -0.066 | [17] 0.012 | [18] 0.051 | [19] 0.03 | [20] 0.094

VPS13B (UniProt Q7Z7G8)
inactive: [1] 0.033 | [2] 0.016 | [4] 0.032 | [5] -0.002 | [6] 0.009 | [7] -0.039 | [8] -0.016 | [9] 0.031 | [10] -0.01 | [11] 0.019 | [12] -0.11 | [13] -0.007 | [14] 0.025 | [15] 0.07 | [16] -0.111 | [17] 0.019 | [18] 0.07 | [19] -0.018 | [20] 0.057

VPS51 (UniProt Q9UID3)
inactive: [1] -0.029 | [2] -0.097 | [4] 0.029 | [5] -0.011 | [6] -0.056 | [7] 0.041 | [8] -0.034 | [9] 0.046 | [10] 0.002 | [11] 0.029 | [12] -0.024 | [13] -0.01 | [14] -0.098 | [15] -0.092 | [16] 0.055 | [17] 0.019 | [18] -0.057 | [19] -0.032 | [20] 0.013

VPS50 (UniProt Q96JG6)
inactive: [1] -0.108 | [2] -0.089 | [4] 0.036 | [5] 0.04 | [6] -0.11 | [7] 0.033 | [8] -0.012 | [9] 0.1 | [10] -0.022 | [11] 0.023 | [12] -0.021 | [13] 0.028 | [14] -0.157 | [15] 0.019 | [16] 0.012 | [17] 0.007 | [18] -0.027 | [19] -0.006 | [20] -0.003

VDAC1 (UniProt P21796)
inactive: [1] 0.074 | [2] 0.035 | [4] -0.014 | [5] 0.011 | [6] 0.005 | [7] -0.022 | [8] -0.026 | [9] -0.03 | [10] 0.014 | [11] 0 | [12] -0.036 | [13] -0.01 | [14] -0.004 | [15] -0.033 | [16] -0.023 | [17] -0.007 | [18] 0.052 | [19] 0 | [20] 0.002

WASHC3 (UniProt Q9Y3C0)
inactive: [1] 0.055 | [2] 0.026 | [4] 0.054 | [5] 0.004 | [6] -0.02 | [7] -0.022 | [8] -0.02 | [9] -0.005 | [10] 0.008 | [11] 0.108 | [12] -0.061 | [13] 0.001 | [14] 0.068 | [15] 0.077 | [16] 0.002 | [17] -0.014 | [18] 0.042 | [19] -0.029 | [20] 0.05

Retrieved one by one from above, 2 records:
WASH2P (UniProt Q6VEQ5)
inactive: [1] 0.009 | [2] -0.08 | [4] -0.059 | [5] 0.02 | [6] -0.004 | [7] -0.011 | [8] -0.037 | [9] 0.004 | [10] 0.007 | [11] 0.007 | [12] -0.067 | [13] -0.029 | [14] -0.055 | [15] -0.027 | [16] 0.067 | [17] 0.001 | [18] -0.036 | [19] 0.016 | [20] 0.053

VHL (UniProt P40337)
inactive: [1] 0.043 | [2] -0.002 | [3] -0.188 | [7] 0.191 | [8] 0.048 | [9] 0.085 | [12] -0.118 | [13] -0.221 | [14] -0.034

The listing continues.

VPS16 (UniProt Q9H269)
inactive: [1] 0.026 | [2] -0.171 | [4] -0.001 | [5] -0.071 | [6] -0.042 | [7] -0.049 | [8] -0.054 | [9] 0.196 | [10] -0.022 | [11] 0.018 | [12] -0.093 | [13] 0.033 | [14] -0.065 | [15] -0.056 | [16] -0.009 | [17] -0.1 | [18] -0.017 | [19] -0.006 | [20] -0.044

VEZF1 (UniProt Q14119)
inactive: [1] 0.142 | [2] -0.072 | [3] 0.286 | [5] 0.078 | [6] 0.105 | [7] 0.232 | [8] -0.072 | [9] 0.182 | [10] 0.088 | [11] -0.118 | [12] 0.11 | [13] -0.154 | [14] 0.11 | [15] -0.172 | [16] 0.046 | [17] 0.004 | [18] -0.07 | [19] 0.1 | [20] -0.107

VPS18 (UniProt Q9P253)
inactive: [1] -0.034 | [2] -0.156 | [4] -0.052 | [5] -0.003 | [6] -0.068 | [7] 0.099 | [8] 0.029 | [9] 0.031 | [10] -0.076 | [11] -0.011 | [12] 0.009 | [13] 0.024 | [14] -0.053 | [15] -0.102 | [16] -0.017 | [17] -0.028 | [18] -0.041 | [19] 0.033 | [20] -0.07

WDR47 (UniProt O94967)
inactive: [1] -0.019 | [2] -0.008 | [4] 0.039 | [5] 0.035 | [6] 0.052 | [7] -0.071 | [8] -0.041 | [9] 0.045 | [10] -0.087 | [11] 0.057 | [12] -0.014 | [13] -0.006 | [14] -0.071 | [15] 0.21 | [16] -0.029 | [17] -0.001 | [18] 0.061 | [19] -0.007 | [20] 0.077

WDR61 (UniProt Q9GZS3)
inactive: [1] -0.011 | [2] 0.064 | [4] -0.011 | [5] -0.005 | [6] -0.012 | [7] -0.012 | [8] -0.007 | [9] -0.028 | [10] 0.031 | [11] -0.121 | [12] -0.031 | [13] 0.008 | [14] -0.05 | [15] -0.082 | [16] 0.14 | [17] -0.035 | [18] 0.065 | [19] -0.104 | [20] 0.042
